PMC3795029

How the values were obtained:
[1] = molecular target: VN-Tbx2a (zebrafish (Danio rerio)); test: split reporter; BiFC with split Venus (VN154m10 / VC155) fused N-terminally; pairs of pCS2 constructs transfected into HEK 293T cells (jetPRIME), 0.3-0.5 µg per construct per 3.5 cm plate; nuclear Venus fluorescence seen by confocal microscopy, vital DAPI
[2] = molecular target: VC-Tbx2a (zebrafish (Danio rerio)); test: as above

Binder	binding [1]	binding [2]
VC-Tbx1 (protein, UniProt Q8AXX2 1-460) MISAISSPWLTQLSHFCDVAAFTTSSLSSLNTPGSYHLSPSPGDPYSHHESQFEPCPAAQHAYNYSGSNSAQAPAQGDSGTSNCSSSSSSSTPNKTLVKKNPKVANINVQLEMKALWDEFNQLGTEMIVTKAGRRMFPTFQVKIFGMDPMADYMLLMDFLPVDDKRYRYAFHSSSWLVAGKADPATPGRVHYHPDSPAKGAQWMKQIVSFDKLKLTNNLLDDNGHIILNSMHRYQPRFHVVYVDPRKDSEKYAEENYKTFVFEETRFTAVTAYQNHRITQLKIASNPFAKGFRDCDPEDWPRNHRPGSLQIMSAFARTRNPMSSPPQQNGTEKEDSRREYDRDPSGNPLHSDPTHQLMSRVLSPALPVLGGLHAVPLTAGPRSPPHELRLDGHPQPPDTLHHHPYKYPATYEHYLGAKTRPSPYPSPSIRGHGYHPHMNPTTANMYSATSAPTNYDYGPR	binds	–
VN-Tbx1 (protein, UniProt Q8AXX2 1-460) MISAISSPWLTQLSHFCDVAAFTTSSLSSLNTPGSYHLSPSPGDPYSHHESQFEPCPAAQHAYNYSGSNSAQAPAQGDSGTSNCSSSSSSSTPNKTLVKKNPKVANINVQLEMKALWDEFNQLGTEMIVTKAGRRMFPTFQVKIFGMDPMADYMLLMDFLPVDDKRYRYAFHSSSWLVAGKADPATPGRVHYHPDSPAKGAQWMKQIVSFDKLKLTNNLLDDNGHIILNSMHRYQPRFHVVYVDPRKDSEKYAEENYKTFVFEETRFTAVTAYQNHRITQLKIASNPFAKGFRDCDPEDWPRNHRPGSLQIMSAFARTRNPMSSPPQQNGTEKEDSRREYDRDPSGNPLHSDPTHQLMSRVLSPALPVLGGLHAVPLTAGPRSPPHELRLDGHPQPPDTLHHHPYKYPATYEHYLGAKTRPSPYPSPSIRGHGYHPHMNPTTANMYSATSAPTNYDYGPR	–	binds

These are yes or no findings as the source states them, for the method shown. In cells and extracts the contact can be indirect. Binding calls can cover weak binding; strength is not graded here.
